Experimental data: PubChem BioAssay AID1259425 (University of Nebraska Medical Center, 2018)
Shown is one part, drawn at random, of about 14,000 reagents tested. The record does not give: the time to read-out.

- Assay: 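Seek colon cancer weak points whose silencing resembles KSR1 loss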 (primary screen)
- Cells: HCT116 human colon cancer cells
- Knock-down reagent: siRNA pool against human genes, 50 nM siRNA
- Measurement: 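mRNA of six signature genes measured together by branched-DNA assay after 50 nM siRNA pool, blank removed, divided by geometric mean of two housekeeping genes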
- Scale: BNIP3L mRNA: higher = more BNIP3L transcript after knockdown; NDRG1 mRNA: higher = more NDRG1 transcript after knockdown; BNIP3 mRNA: higher = more BNIP3 transcript after knockdown; ALDOC mRNA: higher = more ALDOC transcript after knockdown; ACSL5 mRNA: higher = more ACSL5 transcript after knockdown

| Gene | BNIP3L mRNA, set 1 | NDRG1 mRNA, set 1 | BNIP3 mRNA, set 1 | ALDOC mRNA, set 1 | ACSL5 mRNA, set 1 |
| --- | --- | --- | --- | --- | --- |
| SUV39H1 | 0.0899 | 0.243 | 0.278 | 0.0268 | 0.135 |
| PLEKHN1 | 0.255 | 0.414 | 0.46 | 0.127 | 0.554 |
| INPP1 | 0.0834 | 0.134 | 0.201 | 0.0146 | 0.187 |
| HLA-F | 0.0891 | 0.197 | 0.177 | 0.0113 | 0.111 |
| ZNF665 | 0.0889 | 0.234 | 0.273 | 0.0219 | 0.128 |
| ARMCX1 | 0.129 | 0.0587 | 0.522 | 0.0285 | 0.103 |
| LAMP3 | 0.107 | 0.136 | 0.296 | 0.0141 | 0.264 |
| RASIP1 | 0.429 | 1.3 | 0.402 | 0.0349 | 0.495 |
| PGRMC1 | 0.0509 | 0.225 | 0.226 | 0.0219 | 0.139 |
| CDCA3 | 0.25 | 0.405 | 0.246 | 0.163 | 0.444 |
| MTMR8 | 0.0887 | 0.103 | 0.26 | 0.0245 | 0.107 |
| DNMT3B | 0.209 | 0.465 | 0.275 | 0.0886 | 0.318 |
| PSTPIP2 | 0.114 | 0.107 | 0.333 | 0.038 | 0.0855 |
| MATN2 | 0.0779 | 0.306 | 0.304 | 0.0434 | 0.266 |
| SMURF2 | 0.105 | 0.213 | 0.215 | 0.0304 | 0.102 |
| TNIP1 | 0.185 | 0.207 | 0.463 | 0.00964 | 0.342 |
| GON7 | 0.089 | 0.171 | 0.195 | 0.016 | 0.109 |
| GGT3P | 0.182 | 0.707 | 0.311 | 0.02 | 0.337 |
| HNF4A | 0.124 | 0.0664 | 0.239 | 0.0129 | 0.153 |
| NMRAL1 | 0.24 | 0.44 | 0.501 | 0.049 | 0.416 |
| CYP2F1 | 0.137 | 0.101 | 0.335 | 0.036 | 0.0756 |
| VASP | 0.16 | 0.296 | 0.327 | 0.0343 | 0.181 |
| EMC6 | 0.247 | 0.327 | 0.312 | 0.188 | 0.608 |
| GFOD3P | 0.147 | 0.136 | 0.232 | 0.0229 | 0.176 |
| CHCHD6 | 0.181 | 0.158 | 0.263 | 0.101 | 0.185 |
| DNAJC9 | 0.204 | 0.199 | 0.353 | 0.0195 | 0.146 |
| ATP1A3 | 0.0878 | 0.0728 | 0.164 | 0.0289 | 0.0865 |
| PDHB | 0.0815 | 0.155 | 0.262 | 0.0244 | 0.129 |
| MMP28 | 0.105 | 0.115 | 0.264 | 0.0377 | 0.302 |
| NR0B1 | 0.064 | 0.0835 | 0.297 | 0.0224 | 0.0861 |
| FASTKD5 | 0.146 | 0.15 | 0.166 | 0.0329 | 0.14 |
| ADH6 | 0.158 | 0.108 | 0.288 | 0.0503 | 0.234 |
| RHOD | 0.109 | 0.321 | 0.322 | 0.0555 | 0.243 |
| PRODH2 | 0.0777 | 0.255 | 0.297 | 0.0569 | 0.126 |
